Experimental data reported in patent US8268330B2 (priority 2007, dated 2012).
Some entries share one result that the patent states for a list of compounds.

Tested on: HIF-1α in THP-1 and HL-60 cells and guinea pig alveolar macrophages
Experiment: Induction of HIF-1α in myelomonocytic cells and alveolar macrophages exposed to iron chelators in vitro
Type: cell-based, human; guinea pig
Conditions: hours of drug-exposure

CC(=O)N(O)CCCCCNC(=O)CCC(=O)N(O)CCCCCNC(=O)CCC(=O)N(O)CCCCCN [desferroxamine, reference compound]
time of maximum detectable effect of HIF-1α induction: 16 to 24 h
